Measurements reported in PubChem BioAssay AID602196 (INSERM, 2012)

- Aim: 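Knock-downs that protect lung cancer cells from cisplatin or sensitise them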
- Cell system: human A549 lung cancer cells
- Knock-down reagent: siRNA pair against human genes
- Timing: 48 h transfection before cisplatin; time from cisplatin to read-out not stated
- Conditions: cisplatin at a dose killing half of control-siRNA cells; exact dose and duration not given
- Measurement: 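Shift in cisplatin death relative to control siRNA, from -50 (all cells die) to +50 (no cells die); siRNAs harmful on their own scored 0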
- Direction: two-siRNA summed score (-2 to +2): higher = both siRNAs protect from cisplatin killing; -2 means both sensitise; mean protection from cisplatin (shift in death) and protection from cisplatin (shift in death), siRNA C and protection from cisplatin (shift in death), siRNA D: higher = protection from cisplatin killing
- Call rule: 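siRNAs harmful alone (LDH or WST-1) get 0; others get +1 for less and -1 for more cisplatin killing; genes are active when the two siRNAs give the same sign, summing to ±2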
- Meaning of the calls: active = both siRNAs shift cisplatin killing the same way; inactive = no consistent shift, or siRNA harmful alone
The deposit covers about 23,000 reagents; shown is a random part of them. In the full data, 455 (2%) were called active. 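Active includes both protection and sensitisation; some change values fall well beyond the stated -50 to +50 range.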 Reagents against one gene are numbered here. Reagent sequences are not shown. The record does not give: the amount of reagent.

gene knocked down | reagent | two-siRNA summed score (-2 to +2) | mean protection from cisplatin (shift in death) (%) | protection from cisplatin (shift in death), siRNA C (%) | protection from cisplatin (shift in death), siRNA D (%) | Call
LMNB1 | 1 | 0 | 10.2 | 22.3 | -1.9 | inactive
TFAP2C | 1 | 0 | 7.7 | -3.7 | 19 | inactive
SFTA2 | 1 | 0 | 7 | -1.1 | 15 | inactive
MBL2 | 1 | 0 | 6.1 | 17.3 | -5.1 | inactive
CNOT11 | 1 | -1 | 1.2 | -9.7 | 12.1 | inactive
MST1R | 1 | 0 | 1.5 | 24.1 | -21.1 | inactive
OR52A1 | 1 | 0 | 3.3 | 6.5 | 0.1 | inactive
GLYAT | 1 | 1 | 8.6 | 11.8 | 5.3 | inactive
NPR3 | 1 | 0 | 1 | -5.4 | 7.4 | inactive
NPR3 | 2 | 1 | 12.9 | 7.5 | 18.2 | inactive
SCFD1 | 1 | 0 | 2 | -0.1 | 4.2 | inactive
SNX11 | 1 | 1 | 14.5 | 5 | 24.1 | inactive
MCTP1 | 1 | 0 | 0.6 | -0.7 | 2 | inactive
ADIPOR2 | 1 | 1 | 37.8 | 50.5 | 25.2 | inactive
LOC388345 | 1 | 0 | -2.9 | 4.7 | -10.4 | inactive
KRT16 | 1 | -1 | -4.3 | -19.3 | 10.8 | inactive
SLC20A2 | 1 | 1 | 12.1 | 20.7 | 3.5 | inactive
CASZ1 | 1 | 0 | 3.8 | -1.3 | 8.9 | inactive
LOC391599 | 1 | 0 | 0.9 | 19.7 | -17.8 | inactive
PCDHGA3 | 1 | 0 | 4.1 | 2.5 | 5.7 | inactive
SLC2A3 | 1 | 0 | -1.4 | -6.5 | 3.7 | inactive
FIZ1 | 1 | 0 | -5.5 | 7.1 | -18.1 | inactive
PALB2 | 1 | 1 | 11.1 | 0.4 | 21.7 | inactive
OR2AG2 | 1 | 2 | 20.7 | 27.7 | 13.7 | active
NTAQ1 | 1 | 0 | 7 | -2 | 16 | inactive
SUOX | 1 | 0 | 7.5 | 9.4 | 5.6 | inactive
CEPT1 | 1 | 0 | 1.3 | 0.9 | 1.7 | inactive
SERTAD1 | 1 | 0 | 7.2 | 12.8 | 1.7 | inactive
METTL5 | 1 | 0 | -11.6 | 5.1 | -28.3 | inactive
CD300LD-AS1 | 1 | 0 | -6.3 | -2.4 | -10.3 | inactive
NPY | 1 | 0 | -1.4 | -5 | 2.3 | inactive
IFNB1 | 1 | 0 | -6.1 | -13.6 | 1.5 | inactive
NT5DC3 | 1 | 0 | 11.9 | 13.5 | 10.2 | inactive
FLJ40411 | 1 | 0 | 7.6 | 8.9 | 6.4 | inactive
ZNF711 | 1 | -1 | -6.4 | -2 | -10.8 | inactive
NAA25 | 1 | 0 | -4.9 | -17.6 | 7.9 | inactive
C1orf216 | 1 | 0 | 4 | 3.9 | 4.2 | inactive
PTPN23 | 1 | 0 | 2.3 | -7.5 | 12 | inactive
NOL4L | 1 | -1 | -4.4 | 8.6 | -17.3 | inactive
LOC388123 | 1 | 0 | 2.3 | -0.5 | 5 | inactive
ALG12 | 1 | 0 | 2 | 11.6 | -7.6 | inactive
SCRT2 | 1 | 0 | 11.9 | 23.6 | 0.3 | inactive
MRAS | 1 | 0 | 2.6 | 5.5 | -0.3 | inactive
IFIT3 | 1 | 0 | 4 | 12 | -4.1 | inactive
LINC01341 | 1 | 0 | 5.9 | 11.4 | 0.4 | inactive
PSMC6 | 1 | 0 | 5.3 | 11.1 | -0.4 | inactive
LOC340542 | 1 | 0 | 2 | 0.5 | 3.5 | inactive
CD74 | 1 | 0 | 0 | -6 | 6.1 | inactive
LOC393076 (retired record) | 1 | 0 | 11.9 | 14.5 | 9.3 | inactive
LOC440675 | 1 | 1 | 21.5 | 13.5 | 29.4 | inactive
SVOPL | 1 | 0 | 5.4 | -1.8 | 12.6 | inactive
SNAPC3 | 1 | 1 | 4.5 | -3 | 11.9 | inactive
LOC391151 | 1 | 0 | 18.1 | 21.7 | 14.5 | inactive
CD33 | 1 | -1 | -6.8 | -24.7 | 11.1 | inactive
LOC440691 | 1 | 0 | 4.6 | -1.7 | 11 | inactive
LOC441483 | 1 | 1 | 15.6 | 23 | 8.1 | inactive
CHRM4 | 1 | 1 | 3.4 | -1.4 | 8.3 | inactive
